Source: US20240076384A1
These are yes or no findings as the source states them, for the method shown. Some entries that bind do so weakly or less than the wild type. Values belong to the binder of their own block, whether it stands above or below them.

The chains behind the UniProt entries cited, without tags or fusion partners. Residues count along the entry.
UniProt P20138, residues 18-364: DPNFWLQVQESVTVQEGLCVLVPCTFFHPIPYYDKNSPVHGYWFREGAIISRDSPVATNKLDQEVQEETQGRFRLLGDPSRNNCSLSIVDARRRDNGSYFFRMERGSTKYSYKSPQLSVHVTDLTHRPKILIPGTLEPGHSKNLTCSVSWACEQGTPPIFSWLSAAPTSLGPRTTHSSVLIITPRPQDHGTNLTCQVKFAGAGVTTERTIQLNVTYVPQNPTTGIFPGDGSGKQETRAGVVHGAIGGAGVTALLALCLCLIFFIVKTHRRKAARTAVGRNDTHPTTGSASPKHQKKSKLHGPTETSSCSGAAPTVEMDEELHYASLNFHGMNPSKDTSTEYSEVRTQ

Tests used:
[1] = target: CD33 expressed on human AML cell line MV4-11 (human) (UniProt P20138); experiment: flow cytometry on MV4-11 cells, anti-human IgG detection, fold over background
[2] = target: CD33 expressed on human AML cell line MV4-11 (human) (UniProt P20138); experiment: flow cytometry on Mv4-11 cells, anti-human IgG secondary, fold over background against secondary antibody control
[3] = target: T1, mouse NKG2D expressed on cells (mouse) (UniProt O54709); experiment: flow cytometry on cells expressing mouse NKG2D
T1 sequence (looked up): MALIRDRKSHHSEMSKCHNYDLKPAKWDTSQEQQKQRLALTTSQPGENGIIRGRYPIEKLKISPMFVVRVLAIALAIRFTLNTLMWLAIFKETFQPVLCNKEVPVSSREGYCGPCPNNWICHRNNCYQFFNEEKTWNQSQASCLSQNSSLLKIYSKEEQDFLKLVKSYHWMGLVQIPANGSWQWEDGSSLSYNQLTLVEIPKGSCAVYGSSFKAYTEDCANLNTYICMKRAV

binding [1]: binds | binding [2]: binds
B1: parental CD33 monoclonal antibody (antibody, V domains shown)
VH: QVQLVQSGAEVKKPGASVKVSCKASGYTFTDYVVHWVRQAPGQGLEWMGYINPYNDGTKYNEKFKGRVTMTRDTSISTAYMELSRLRSDDTAVYYCARDYRYEVYGMDYWGQGTLVTVSS
VL: DIVLTQSPASLAVSPGQRATITCTASSSVNYIHWYQQKPGQPPKLLIYDTSKVASGVPARFSGSGSGTDFTLTINPVEANDTANYYCQQWRSYPLTFGQGTKLEIK

binding [3]: binds
B2: CD33-TriNKET-A49 (ADI-27749 and a CD33 binding domain) (bispecific antibody, V domains shown)
VH 1: EVQLVESGGGLVKPGGSLRLSCAASGFTFSSYSMNWVRQAPGKGLEWVSSISSSSSYIYYADSVKGRFTISRDNAKNSLYLQMNSLRAEDTAVYYCARGAPMGAAAGWFDPWGQGTLVTVSS
VL 1: DIQMTQSPSSVSASVGDRVTITCRASQGISSWLAWYQQKPGKAPKLLIYAASSLQSGVPSRFSGSGSGTDFTLTISSLQPEDFATYYCQQGVSFPRTFGGGTKVEIK
VH 2: B1 VH
VL 2: B1 VL
